Experimental data: publication doi:10.1101/2020.02.05.936237
Results are given in words; binding and its absence hold for the method and conditions named. In cells and extracts the contact can be indirect. These calls come from enrichment with a bait or labelling near it, and not all partners need be listed. Sequences can lack the tags named with a protein.

T1: Enp1-TAP (Enp1 harboring a C-terminal Tandem Affinity Purification tag) (S. cerevisiae) (UniProt P38333)
T1 sequence: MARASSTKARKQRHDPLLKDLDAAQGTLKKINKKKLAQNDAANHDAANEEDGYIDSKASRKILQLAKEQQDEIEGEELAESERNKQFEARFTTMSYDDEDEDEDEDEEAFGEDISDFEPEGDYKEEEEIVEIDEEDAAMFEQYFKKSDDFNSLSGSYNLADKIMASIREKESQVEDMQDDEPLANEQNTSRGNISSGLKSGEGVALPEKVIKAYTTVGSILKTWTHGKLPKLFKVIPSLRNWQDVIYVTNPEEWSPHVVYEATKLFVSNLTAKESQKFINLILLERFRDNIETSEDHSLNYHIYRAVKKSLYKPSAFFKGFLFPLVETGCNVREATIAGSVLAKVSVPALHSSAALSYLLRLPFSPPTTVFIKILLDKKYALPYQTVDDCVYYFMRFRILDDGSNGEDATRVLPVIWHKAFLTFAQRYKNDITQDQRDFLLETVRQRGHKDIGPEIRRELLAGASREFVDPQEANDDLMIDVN


Target: T1, Enp1-TAP (Enp1 harboring a C-terminal Tandem Affinity Purification tag) (S. cerevisiae)
Assay: affinity purification with mass spectrometry

Row | binding | Binder
1 | binds | Slx9 (protein, UniProt P53251 1-210) MVAKKRNTLRSKVSARNSQNFGPDVANNGILDESYDIESDPRAFLHQPKETKKEKLLNRQNTFLSNLKGKSTLNDGIAANFDGISKSSIRRRKRKLREELKPRMQDLLTSLEQEKDLRGIIENSSKDMNNDDDIDMDSKIRFVDTKEMNLKKIEPGSVRIKKNQPNIRNQKGAKALAANETARFNQVLTNQDFQKNPFGALREVIKLQKQ
2 | binds | Rio1 (protein, UniProt Q12196 1-484) MSLEDKFDSLSVSQGASDHINNQLLEKYSHKIKTDELSFSRAKTSKDKANRATVENVLDPRTMRFLKSMVTRGVIADLNGCLSTGKEANVYHAFAGTGKAPVIDEETGQYEVLETDGSRAEYAIKIYKTSILVFKDRERYVDGEFRFRNSRSQHNPRKMIKIWAEKEFRNLKRIYQSGVIPAPKPIEVKNNVLVMEFLSRGNGFASPKLKDYPYKNRDEIFHYYHTMVAYMRLLYQVCRLVHADLSEYNTIVHDDKLYMIDVSQSVEPEHPMSLDFLRMDIKNVNLYFEKMGISIFPERVIFQFVISETLEKFKGDYNNISALVAYIASNLPIKSTEQDEAEDEIFRSLHLVRSLGGLEERDFDRYTDGKFDLLKSLIAHDNERNFAASEQFEFDNADHECSSGTEEFSDDEEDGSSGSEEDDEEEGEYYDDDEPKVLKGKKHEDKDLKKLRKQEAKDAKREKRKTKVKKHIKKKLVKKTKSKK
3 | binds | Mrd1 (protein, UniProt Q06106 1-887) MSRIIVKGLPVYLTDDNLREHFTKRLRQKHSHQAVNGSGPDLITDVKILRDRNGESRRFGFIGYRNEEDAFDAVEYFNGSFINTSKIEVSMAKSFADPRVPQPMKEKRREALKRFREKEEKLLQEENRKKKKVDENKHSNIDDEIRKNKQLQEFMETMKPSSQVTSWEKVGIDKSIEDEKLKREEEDSSVQGNSLLAHALALKEENNKDEAPNLVIENESDDEYSALNRNRDEDQEDAGEEEKMISISNLKDTDIGLVNDDANSDEKENEKRRNLAQDEKVSDLDWFKQRRVRIKESEAETREKSSSYATEQNESLDTKKEEQPERAVPQKTDEELAIEKINQTGRLFLRNILYTSKEEDFRKLFSPFGELEEVHVALDTRTGQSKGFAYVLFKDSKNAVNAYVELDKQIFQGRLLHILPGEEKKSHRLDEFDLKNMPLKKQKELKRKAAASRQTFSWNSLYMNQDAVLGSVAAKLGLEKSQLIDAENSSSAVKQALAEAHVIGDVRKYFESKGVDLTKFSQLKSTNQRDDKVILVKNFPFGTTREELGEMFLPYGKLERLLMPPAGTIAIVQFRDTTSARAAFTKLSYKRFKDGIIYLERGPKDCFTKPAEADDLINNTSAKEEENPVEVKPSSNDLMEANKDVTEGSSNAHDEDVIDGPTVSIFIKNLNFSTTNQNLTDRFKVFTGFVVAQVKTKPDPKHQGKTLSMGFGFVEFRTKEQANAVIAAMDGTVIDGHKIQLKLSHRQASQSGNTKTKSNKKSGKIIVKNLPFEATRKDVFELFNSFGQLKSVRVPKKFDKSARGFAFVEFLLPKEAENAMDQLHGVHLLGRRLVMQYAEEDAVDAEEEIARMTKKVRKQVATNEMAALRNGGGRKKLDVDDEENEGF
